# This is one part of the list.
# Chains of the proteins cited; added tags and fusions are not shown.
# UniProt Q0JBA9, entry or part of it: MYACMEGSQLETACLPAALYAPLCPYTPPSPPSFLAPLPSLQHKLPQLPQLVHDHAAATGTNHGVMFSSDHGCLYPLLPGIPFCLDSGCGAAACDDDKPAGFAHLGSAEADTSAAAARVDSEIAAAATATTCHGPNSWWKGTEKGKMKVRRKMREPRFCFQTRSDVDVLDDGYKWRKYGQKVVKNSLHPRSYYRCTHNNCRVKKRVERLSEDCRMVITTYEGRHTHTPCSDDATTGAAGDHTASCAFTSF
# Molecular target: OsWRKY34 (Oryza sativa, UniProt Q0JBA9 1-250)
# Test: protein-binding microarray (RPBM); PBS, 2% BSA, 51.3 ng/ul salmon testes DNA, 50 uM zinc acetate, 200 nM TF, 25 C, 1 h; high values mean tight binding
# Settings: protein: recombinant; tags: N-terminal polyhistidine and DsRed monomer fusion (pET32a); label: CyDye5-dUTP incorporated in the synthesized complementary strand; 3' TTTTT single-stranded linker to array surface; dsDNA, one strand shown
# Outline: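 Per-feature fluorescence intensity (arbitrary units), read on an Axon 4000B scanner, is the binding signal. Transcription factors carrying an N-terminal polyhistidine tag and DsRed fusion were expressed in E. coli BL21-CodonPlus and purified on Ni–NTA. A custom Agilent array, made double-stranded by primer extension with Cy5-dUTP and blocked with 2% BSA, was incubated with 200 nM protein in PBS, 2% BSA, salmon testes DNA and 50 µM zinc acetate at 25 °C for 1 h and then washed.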
row,Sequence,binding signal
1,TTTCTTTAATCTGGTTGTTAGATTCCAACTATTTTCCTCACGGAGTCACCTAGTGCAG,8720 fluorescence intensity (a.u.)
2,CACTACCTCACCCACTACCCCGCGTCGTGCCTTTTGACTCCGGAGTCACCTAGTGCAG,10100 fluorescence intensity (a.u.)
3,TCAGGGGTGGTGGTTCGTTGAAGTCGGCCGATGGAGGGGCCGGAGTCACCTAGTGCAG,9550 fluorescence intensity (a.u.)
4,TTAGGATACATGGGAATTTTAGTGGGGATAGGATGGGGAACGGAGTCACCTAGTGCAG,8520 fluorescence intensity (a.u.)
5,CGGTGTCGGATTTTTGGTTGGTTGACGGGGTTTGTGAGGTCGGAGTCACCTAGTGCAG,17500 fluorescence intensity (a.u.)
6,GTGCTATCTGTGTGGGTGATTGATTCATTGGTCAACTCAACGGAGTCACCTAGTGCAG,8800 fluorescence intensity (a.u.)
7,GCATCATTATGAGTTTTTTTTTTGTTTGCTGCTTCTGATACGGAGTCACCTAGTGCAG,8300 fluorescence intensity (a.u.)
8,GTCTCGCGCCAGTGCGTCTCTTCCTCGCGCGGCGATCATGCGGAGTCACCTAGTGCAG,9580 fluorescence intensity (a.u.)
9,TTATCTCCTCATCCATTTTCATCCTCGTCTACATTCACTGCGGAGTCACCTAGTGCAG,8510 fluorescence intensity (a.u.)
10,GGGGTGGGCGGCCGCGGGAGCTCCACGGCATCGATCGCCACGGAGTCACCTAGTGCAG,8040 fluorescence intensity (a.u.)
11,CGCCACCACCTACCGCCATTCGCCGCCGTATATATAACACCGGAGTCACCTAGTGCAG,13800 fluorescence intensity (a.u.)
12,TATTTTTTGCTATTATCTTTTGTGTAAGCATATTCTCTCTCGGAGTCACCTAGTGCAG,9860 fluorescence intensity (a.u.)
13,CAAACTTCCAACTTTTCTGTCACATTATTTTAATTTTTTCCGGAGTCACCTAGTGCAG,10500 fluorescence intensity (a.u.)
14,TGTCCGCGGTCTCTTATTATGGGTTGCATTTTCCCCAAACCGGAGTCACCTAGTGCAG,10200 fluorescence intensity (a.u.)
15,GCCGCGCCGTTTGTTCGTGCTGATTCTCTCTCTCTCTCTACGGAGTCACCTAGTGCAG,11800 fluorescence intensity (a.u.)
16,TTTCGGACAGGGCCAGTTCTCCATCAGTCCATCCAAATTGCGGAGTCACCTAGTGCAG,9220 fluorescence intensity (a.u.)
17,CATGCAACATACCCATCCCATCGTCATCCTCATCATCATCCGGAGTCACCTAGTGCAG,9010 fluorescence intensity (a.u.)
18,GTGGGCTGGGGCTGAGATGGGCCTTAATTTGCAGTGGATCCGGAGTCACCTAGTGCAG,8770 fluorescence intensity (a.u.)
19,TCGTCTCCTCACCCCGCTGCTTCTCGACACCGCCACCGCACGGAGTCACCTAGTGCAG,8860 fluorescence intensity (a.u.)
20,GATGTCCCTTAATACCCCACTAGATTATGCTATCTACTCTCGGAGTCACCTAGTGCAG,9610 fluorescence intensity (a.u.)
21,GGTTATCGTTCTGAACTTCTGATGTTGCTGTTCAAATTTCCGGAGTCACCTAGTGCAG,14900 fluorescence intensity (a.u.)

row,Sequence,binding signal
1,GGTGGTGTGCCGTGCGTGTGGTGTGCGTGCGTGGCTAACTCGGAGTCACCTAGTGCAG,8050 fluorescence intensity (a.u.)
2,TATGTCACTAGCACCATATGTAACTAACACTCTCTCTAAACGGAGTCACCTAGTGCAG,9000 fluorescence intensity (a.u.)
3,TTTTCTCACATGTTTGGCCATTCGTCTTATTAAAAACTTTCGGAGTCACCTAGTGCAG,11000 fluorescence intensity (a.u.)
4,TTTTCTTTGTCTCTGTCCGCTCTTTTTTTTTATTTTTTATCGGAGTCACCTAGTGCAG,12300 fluorescence intensity (a.u.)
5,GTGAAGGGTATTTTTTTTAAAAAAAAATGGTGTGATGCGGCGGAGTCACCTAGTGCAG,8180 fluorescence intensity (a.u.)
6,TCGTCGCCTCGCCTCGCCGATCCGCCTCTCGTTCCGCCCGCGGAGTCACCTAGTGCAG,9430 fluorescence intensity (a.u.)
7,ACTAACGAAATTACTACTTCGTAGGGGTAGGGGTGGCGTGCGGAGTCACCTAGTGCAG,9370 fluorescence intensity (a.u.)
8,TGTTCATGTTTAACTCTAGAGTTTGACTTTTTTTTTACGGCGGAGTCACCTAGTGCAG,16300 fluorescence intensity (a.u.)
9,ATTCGTGCTAAAAATCTGATTGTGGTATATTTTCTGTGGCCGGAGTCACCTAGTGCAG,8170 fluorescence intensity (a.u.)
10,CGTCTTTGCCGGCCTCGCACATCATCTCTCTCTTTTCTTGCGGAGTCACCTAGTGCAG,16100 fluorescence intensity (a.u.)
11,ATGGCCACCCGGTCCTTGTTGACTTCTTGTCAACGATGTGCGGAGTCACCTAGTGCAG,11500 fluorescence intensity (a.u.)
12,GTACATACGTAAAATACTCCATTTGTTTCTAAATATTTGACGGAGTCACCTAGTGCAG,9110 fluorescence intensity (a.u.)
13,TGTTATTATTGCCGTTGTCTTTATTTTTCTTTTTTGAAAACGGAGTCACCTAGTGCAG,9580 fluorescence intensity (a.u.)
14,GTCAGTCCCATTTCCACCACACAGCAGCAGCATCCATACACGGAGTCACCTAGTGCAG,12500 fluorescence intensity (a.u.)
15,GGCTCCTCGTCGTCGTCGTCATCCTCGGGCAGGGTTGGTACGGAGTCACCTAGTGCAG,12400 fluorescence intensity (a.u.)
16,GGTTCTTCTTGTGCACCGCCAGCCCGTTCTCCTCCTCCACCGGAGTCACCTAGTGCAG,8210 fluorescence intensity (a.u.)
17,AAACCTCACTATCACACTCATCCTTTCCTACTTGGATTCCCGGAGTCACCTAGTGCAG,9200 fluorescence intensity (a.u.)
18,AAGTGTGTAAGCATTCTTATTCTTTCAATTATTTCTATTCCGGAGTCACCTAGTGCAG,8700 fluorescence intensity (a.u.)
19,GGTCGTGGGAACAAATTCTTTCACATATGTGTGTTTTCCTCGGAGTCACCTAGTGCAG,10100 fluorescence intensity (a.u.)
20,GGTTGGGTTTCGTGGAGAATTGCGGCAGATCTTTGAGATGCGGAGTCACCTAGTGCAG,8270 fluorescence intensity (a.u.)
21,GGGCCTCCATGTCGCGCACCGCCACCATCCATCCACACGGCGGAGTCACCTAGTGCAG,9270 fluorescence intensity (a.u.)

row,Sequence,binding signal
1,GATCCATCTCCGTATCTCTCACCGACCCCAAATCGCACAGCGGAGTCACCTAGTGCAG,8300 fluorescence intensity (a.u.)
2,CAATCATACGCTAATGACTTTCCCGTTTTCCGTACCATTACGGAGTCACCTAGTGCAG,10600 fluorescence intensity (a.u.)
3,TCCCTCAGCCGTTCATCGCCCCTTTGTCGTCTCAGCACTTCGGAGTCACCTAGTGCAG,8420 fluorescence intensity (a.u.)
4,CACACACACACACACACGCAGACCACGCACGCGTCCTAACCGGAGTCACCTAGTGCAG,8570 fluorescence intensity (a.u.)
5,GCTACTGTTACACTGTTCCCAGCTACAGTCTACCATTGTCCGGAGTCACCTAGTGCAG,9630 fluorescence intensity (a.u.)
6,ATCTTTGACTTTTCGCCGCACACGCTATAAGGCCAGTCACCGGAGTCACCTAGTGCAG,16000 fluorescence intensity (a.u.)
7,GCTATACATCCATGATTTTTTTTGGTTATTTTTGAAAATTCGGAGTCACCTAGTGCAG,8920 fluorescence intensity (a.u.)
8,ATTCCTATATGGACTCTACTTTTTCTTTTCTCCGATTAATCGGAGTCACCTAGTGCAG,9410 fluorescence intensity (a.u.)
9,GCTTCACGTGGACCGCGGCCATCATCATCAGGCTGCAGCTCGGAGTCACCTAGTGCAG,8830 fluorescence intensity (a.u.)
10,GTGGTTCGGTGGGGTAATTCATACTGTCGCAATTGTTCAGCGGAGTCACCTAGTGCAG,9850 fluorescence intensity (a.u.)
11,CCTCACCCGTCTCTGCTCTGCTCTGCTCTCTGTTCCTCGCCGGAGTCACCTAGTGCAG,12500 fluorescence intensity (a.u.)
12,GGCTGTTGACTACACGAAATGATAGGGCTGGGATGGATCGCGGAGTCACCTAGTGCAG,8240 fluorescence intensity (a.u.)
13,TCACAAACACATGCTAGTAGTATAGTACTGTAATATTTTGCGGAGTCACCTAGTGCAG,8710 fluorescence intensity (a.u.)
14,TTGATCCATATATTTTTCTCGGTGTTTGACCCCAAGACTCCGGAGTCACCTAGTGCAG,8900 fluorescence intensity (a.u.)
15,CTCCTCGCCAAGGTCTCCATCGCCTGCTTCTCATGAGCCACGGAGTCACCTAGTGCAG,8450 fluorescence intensity (a.u.)
16,CGCCTTCGCCTCCGGCCCCTTATATGGCGTGGCGGGGAGGCGGAGTCACCTAGTGCAG,8930 fluorescence intensity (a.u.)
17,AGCATTTAGGTGAAAATATCACCATATACTATCTCCATCTCGGAGTCACCTAGTGCAG,8380 fluorescence intensity (a.u.)
18,CGAGGATATTAATAATCTTCCAGTTCTCCATTTTTATACCCGGAGTCACCTAGTGCAG,8170 fluorescence intensity (a.u.)
19,TACCGTCTCACACGCTGCTCATCATGTTTTTTATACTTTACGGAGTCACCTAGTGCAG,11500 fluorescence intensity (a.u.)
20,CGGTTTCGTGTTCCCGCGGCTCTATAATTTGGACCTCATGCGGAGTCACCTAGTGCAG,9900 fluorescence intensity (a.u.)
21,CATCGTGGGATCCACTACTCCGCTACTCCTATCCTATCACCGGAGTCACCTAGTGCAG,8990 fluorescence intensity (a.u.)

row,Sequence,binding signal
1,CTCCTCGTATCTTTGTCGGCTGCCAGGCCCTCCGACTTTACGGAGTCACCTAGTGCAG,10800 fluorescence intensity (a.u.)
2,TTTGTCCGTGGAGGCAAGCTTATGTTCTCATCTATAAATTCGGAGTCACCTAGTGCAG,9760 fluorescence intensity (a.u.)
3,CTGCCGATTTCGCCGGCTCGATCCCCACCCCGACCCCGCTCGGAGTCACCTAGTGCAG,8390 fluorescence intensity (a.u.)
4,CGAGAGACTACCGTTATCGTTCTTCAATCTGCTGGATTCACGGAGTCACCTAGTGCAG,8750 fluorescence intensity (a.u.)
5,TAATTTTTTGTGTAGCTGACATATGGGTCCCATTATTTTTCGGAGTCACCTAGTGCAG,10100 fluorescence intensity (a.u.)
6,CCTCTCACTGCTAGTGCCCCACACCGTTCTTCGCTGCCCACGGAGTCACCTAGTGCAG,11800 fluorescence intensity (a.u.)
7,CAGTTTTTCGATGAAATTTCATACGCAATTATTGGTTCAACGGAGTCACCTAGTGCAG,8040 fluorescence intensity (a.u.)
8,CTCTTATTGTCCCTATCATGACTAAATTGGTTTCCGGCTCCGGAGTCACCTAGTGCAG,8220 fluorescence intensity (a.u.)
9,CCACACTCCTCGCTCGCCTGCCTCTCTGTTCTTAATTAGCCGGAGTCACCTAGTGCAG,8750 fluorescence intensity (a.u.)
10,CCCACTCACCAGTCACCACCCAAGTGCACCACCCCTTTTTCGGAGTCACCTAGTGCAG,9130 fluorescence intensity (a.u.)
11,CCTGCTGCTTCATATGTTCTGCTCTGAACATGGACTGCGCCGGAGTCACCTAGTGCAG,8320 fluorescence intensity (a.u.)
12,AGGCGTGTCCCGTGTCCGTCCGTGGAGAGGGGAGGGGAGGCGGAGTCACCTAGTGCAG,10700 fluorescence intensity (a.u.)
13,CAATTATTACAGGCGGCCAGCGCCTCATGGCTTTTACCTTCGGAGTCACCTAGTGCAG,8660 fluorescence intensity (a.u.)
14,TCCAATTTGGATGGGGTTATTATTTTGTTTGCTCTCTCAACGGAGTCACCTAGTGCAG,9990 fluorescence intensity (a.u.)
15,CGTTGGTCGGGGAGAGTCAAGAGTTGGGGATATATACATGCGGAGTCACCTAGTGCAG,9360 fluorescence intensity (a.u.)
16,TTCTTCCCCACTTCACCCGCAAGTTTGCTTAAGCCTGTTCCGGAGTCACCTAGTGCAG,9310 fluorescence intensity (a.u.)
17,AGCTCCTTGACAGCACTGCATCTTTTATCATACACTTACACGGAGTCACCTAGTGCAG,9610 fluorescence intensity (a.u.)
18,TCTCTTGCCATTGCAAGCCTTACACGTGACCCTGCGCATGCGGAGTCACCTAGTGCAG,8780 fluorescence intensity (a.u.)
19,GACTTTATATGTGACTTTTTTTTTAACTTTTTCATAATTTCGGAGTCACCTAGTGCAG,9730 fluorescence intensity (a.u.)
20,GTCGAGGAGGAGGCGGTGGTGGTGGTGGTGGCGCGGCCGCCGGAGTCACCTAGTGCAG,10400 fluorescence intensity (a.u.)
21,ATCTAGACCATTATTCTTTTAGTAATTTCAAATTTGTATTCGGAGTCACCTAGTGCAG,8500 fluorescence intensity (a.u.)

# Looked up above.
# For binding signal, CGTTGGTCGGGGAGAGTCAAGAGTTGGGGATATATACATGCGGAGTCACCTAGTGCAG shows 9360 fluorescence intensity (a.u.)
# For binding signal, GACTTTATATGTGACTTTTTTTTTAACTTTTTCATAATTTCGGAGTCACCTAGTGCAG shows 9730 fluorescence intensity (a.u.)
# For binding signal, CCTCTCACTGCTAGTGCCCCACACCGTTCTTCGCTGCCCACGGAGTCACCTAGTGCAG shows 11800 fluorescence intensity (a.u.)
# For binding signal, AGCTCCTTGACAGCACTGCATCTTTTATCATACACTTACACGGAGTCACCTAGTGCAG shows 9610 fluorescence intensity (a.u.)
# For binding signal, TTCTTCCCCACTTCACCCGCAAGTTTGCTTAAGCCTGTTCCGGAGTCACCTAGTGCAG shows 9310 fluorescence intensity (a.u.)

# Reference: PMC7819943, “Rice protein-binding microarrays: a tool to detect cis-acting elements near promoter regions in rice”
